{
  "sequences": {"note": "Sequences of proteins named here, by UniProt entry; tags and fusion partners are left off. A change or cut given only in a name is not applied to a line headed by its entry.", "UniProt Q9UNA4": "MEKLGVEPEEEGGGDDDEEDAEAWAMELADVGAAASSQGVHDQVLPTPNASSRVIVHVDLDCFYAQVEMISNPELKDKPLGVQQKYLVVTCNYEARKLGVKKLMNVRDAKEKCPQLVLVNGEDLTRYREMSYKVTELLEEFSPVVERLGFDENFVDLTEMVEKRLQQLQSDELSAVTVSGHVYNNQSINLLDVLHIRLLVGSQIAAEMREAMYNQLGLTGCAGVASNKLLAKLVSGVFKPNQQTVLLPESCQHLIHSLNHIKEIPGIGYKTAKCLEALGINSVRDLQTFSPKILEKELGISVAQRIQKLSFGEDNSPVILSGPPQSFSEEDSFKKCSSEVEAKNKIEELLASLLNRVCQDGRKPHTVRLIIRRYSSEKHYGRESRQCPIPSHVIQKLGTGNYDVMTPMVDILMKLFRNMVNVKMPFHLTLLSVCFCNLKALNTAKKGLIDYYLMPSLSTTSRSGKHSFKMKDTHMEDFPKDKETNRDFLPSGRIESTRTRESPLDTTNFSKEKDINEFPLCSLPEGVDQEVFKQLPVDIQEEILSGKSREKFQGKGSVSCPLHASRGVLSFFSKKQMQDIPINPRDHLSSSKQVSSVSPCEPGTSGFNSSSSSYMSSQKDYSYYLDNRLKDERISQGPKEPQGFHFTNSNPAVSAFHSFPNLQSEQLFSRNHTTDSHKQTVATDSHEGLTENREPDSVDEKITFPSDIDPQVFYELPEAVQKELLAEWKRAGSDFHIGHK"},
  "source": "PubChem BioAssay AID588590",
  "about": "(National Center for Advancing Translational Sciences (NCATS), 2011)",
  "note": "Screen size: about 390,000 compounds; about 4,000 (1%) were called active. The shares of active, inactive and inconclusive entries below differ from those in the screen. The call rests on the fitted dose curve; in most records, active means well fitted inhibition curve with a large enough effect; inconclusive means small, poorly fitted or top-dose-only effect, or another doubt; inactive means no such curve, though single readings can be large or run the other way. Potencies beside an inconclusive call are fits to weak or partial responses and may not hold up. Potency means the concentration at half of the fitted maximal effect.",
  "data": [
    {"target": "DNA polymerase iota (Homo sapiens) (UniProt Q9UNA4)", "test": "qHTS for Inhibitors of Polymerase Iota", "settings": "Pol iota fluorescent replication assay, 10 min; series mostly up to 115 µM; activity, negative = inhibition: at the top concentration", "summary_of_the_method": "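Pol iota at 10 nM preincubated 15 min with compounds at room temperature; reaction started with fluorescent substrate, 50 nM final. Fluorescence read kinetically at 0 and 10 min; buffer-only wells as negative control.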", "values": [
      {"compound": "CCOc1cnn(-c2ccccc2)c(=O)c1Cl", "Potency": "inconclusive: 89.1 µM [inhibitor, partial curve, poor fit]"},
      {"compound": "CCCn1c(NCc2ccco2)nc2c1c(=O)n(C)c(=O)n2C", "Potency": "inconclusive: 20 µM [inhibitor, full curve]"},
      {"compound": "O=C(O)Cc1ccc(NC(=O)c2cccc(NC(=O)c3ccco3)c2)cc1", "Potency": "inconclusive: 14.1 µM [inhibitor, partial curve]"},
      {"compound": "O=C1CN(C(=O)COC(=O)c2ccc(N3CCCCCC3)c([N+](=O)[O-])c2)c2ccccc2N1", "activity, negative = inhibition": "inactive: 67.2%"},
      {"compound": "CC(C)C[C@@H](CNCC(=O)[C@H](Cc1ccccc1)NC(=O)c1[nH]cnc1C(=O)N[C@@H](C)CN)NC(=O)c1nc[nH]c1C(=O)N[C@@H](CC(=O)O)C(=O)O", "Potency": "inconclusive: 17.8 µM [inhibitor, partial curve, poor fit]"},
      {"compound": "Cc1c(Cl)cccc1NC(=O)C(=O)NCC(c1cccnc1)N1CCN(c2ccccc2)CC1", "note": "(stereo not given)", "activity, negative = inhibition": "inactive: 1.77%"},
      {"compound": "O=C(C=Cc1cccc(O)c1)c1ccccc1O", "Potency": "inconclusive: 44.7 µM [inhibitor, partial curve, poor fit]"},
      {"compound": "Cc1ccc(NC(=O)Nc2ccc3c(c2)CCC3)cc1", "activity, negative = inhibition": "inactive: -16.9%"},
      {"compound": "C#CCOCCOCCOCCNc1nc(N2CCN(C(=O)CCCCCCCCCCNC(=O)[C@@H](CCSC)n3cc(CCO)nn3)CC2)nc(N2CCN(C(=O)CCCCCCCCCCNC(=O)[C@H](CCSC)n3cc(CCO)nn3)CC2)n1", "activity, negative = inhibition": "inactive: -0.155%"},
      {"compound": "OC(COc1ccc(C2C=CCC2)cc1)CN1CCCCC1", "note": "(stereo not given)", "Potency": "inconclusive: 112 µM [inhibitor, single point]"},
      {"compound": "CCOc1ccc(CNC(=O)c2cnc3sc(N4CCCCCC4)nn3c2=O)cc1OC", "activity, negative = inhibition": "inactive: 43.8%"},
      {"compound": "COc1ccc(-c2ccc([C@H]3[C@H]4C=CC[C@@H](C)[C@@H]4C(=O)N3Cc3ccccc3)c(F)c2)cc1", "Potency": "inconclusive: 39.8 µM [inhibitor, partial curve, poor fit]"},
      {"compound": "Cc1cccc(C(=O)Nc2ccc(C(=O)N/N=C/c3ccco3)cc2)c1", "activity, negative = inhibition": "inactive: -119%"},
      {"compound": "CCOC(=O)CC1C(=O)NCCN1S(=O)(=O)c1ccc(Br)cc1", "note": "(stereo not given)", "Potency": "inconclusive: 89.1 µM [inhibitor, single point]"},
      {"compound": "COc1ccc(Cn2ccc3nc(C)c(C(=O)N4CCN(c5cc(C)ccc5C)CC4)cc3c2=O)cc1", "activity, negative = inhibition": "inactive: -11.6%"},
      {"compound": "C[C@@H]1CC[C@]2(C(=O)O[C@@H]3O[C@H](CO)[C@@H](O)[C@H](O)[C@H]3O)CC[C@]3(C)C(=CCC4[C@@]5(C)CC[C@H](O[C@@H]6OC[C@H](O)[C@H](O[C@@H]7O[C@H](CO)[C@@H](O)[C@H](O)[C@H]7O)[C@H]6O)C(C)(C)C5CC[C@]43C)C2[C@]1(C)O", "note": "(stereo not given in full)", "Potency": "inconclusive: 56.2 µM [inhibitor, partial curve, poor fit]"},
      {"compound": "CCc1nnc(N/N=C/c2ccccc2F)n1N", "Potency": "inconclusive: 2.82 µM [inhibitor, full curve, poor fit]"},
      {"compound": "O=C(CN1CCOCC1)NNC(=S)Nc1ccccc1", "Potency": "inconclusive: 89.1 µM [inhibitor, partial curve, poor fit]"},
      {"compound": "CC1CCN(c2ccc(S(=O)(=O)Nc3cc(C(=O)O)cc(C(=O)O)c3)cc2[N+](=O)[O-])CC1", "Potency": "inconclusive: 28.2 µM [inhibitor, single point]"},
      {"compound": "O=C(CSCc1ccc(Cl)cc1)Nc1cccc(C(=O)Nc2ccccc2C(=O)O)c1", "Potency": "inconclusive: 31.6 µM [inhibitor, single point]"},
      {"compound": "Cc1ccc(Oc2nn[nH]n2)cc1", "Potency": "inconclusive: 14.1 µM [inhibitor, partial curve, poor fit]"},
      {"compound": "CCCn1c(SCC(=O)NC2CCCCC2C)n[nH]c1=O", "note": "(stereo not given)", "Potency": "inconclusive: 10 µM [inhibitor, partial curve, poor fit]"},
      {"compound": "COc1ccccc1CNC(=O)CN1C(=O)c2cccnc2Oc2ccccc21", "activity, negative = inhibition": "inactive: 16.9%"},
      {"compound": "O=C(CCN1CCCC1Cc1ccccc1)c1ccc2c(c1)OCCO2", "note": "(stereo not given)", "Potency": "inconclusive: 17.8 µM [inhibitor, partial curve, poor fit]"},
      {"compound": "Cc1csc2nc(CSc3nc4ccccc4o3)cn12", "Potency": "inconclusive: 0.631 µM [inhibitor, full curve, poor fit]"},
      {"compound": "CN(C)c1cccc2c1c(NC(=O)Nc1ccccc1)nn2C", "Potency": "inconclusive: 39.8 µM [inhibitor, single point]"},
      {"compound": "COc1ccc(NC(=O)CCCc2nnc3n(CCC(C)C)c(=O)c4sccc4n23)cc1Cl", "Potency": "inconclusive: 25.1 µM [inhibitor, single point]"},
      {"compound": "Cn1c(=O)c2c(nc(Cl)n2Cc2ccncc2)n(C)c1=O", "activity, negative = inhibition": "inactive: 15.2%"},
      {"compound": "O=C(c1ccc2ccccc2c1)N1CCN(c2ccc(O)cc2)CC1", "Potency": "inconclusive: 11.2 µM [inhibitor, partial curve, poor fit]"},
      {"compound": "Oc1cc(CNCc2ccccc2)c(O)cc1CNCc1ccccc1", "Potency": "inconclusive: 12.6 µM [inhibitor, full curve, poor fit]"},
      {"compound": "CCN(CC)c1ccc(/C=C2\\C(=N)N3N=C(CC(=O)N4CCOCC4)SC3=NC2=O)cc1", "Potency": "inconclusive: 20 µM [inhibitor, partial curve, poor fit]"},
      {"compound": "COCc1cc(C)nc2sc3c(c12)NC(c1ccccc1C(=O)O)N(c1ccc(OC)cc1)C3=O", "note": "(stereo not given)", "Potency": "inconclusive: 79.4 µM [inhibitor, single point]"},
      {"compound": "CC(Oc1ccccc1)C(=O)N1CCN(Cc2cc(=O)n3nc(-c4ccccc4Cl)sc3n2)CC1", "note": "(stereo not given)", "activity, negative = inhibition": "inactive: -1.4%"},
      {"compound": "CC(C)OC(=O)CN1C(=O)S/C(=C/c2ccc(N3CCCCC3)o2)C1=O", "Potency": "inconclusive: 15.8 µM [inhibitor, full curve, poor fit]"},
      {"compound": "O=C(CS(=O)(=O)c1nc(-c2ccc(Cl)cc2)cn1-c1ccccc1)Nc1ccc(F)cc1F", "Potency": "inconclusive: 63.1 µM [inhibitor, partial curve, poor fit]"},
      {"compound": "O=C(Nc1ccc([N+](=O)[O-])cc1Cl)c1ccccc1O", "Potency": "inactive"},
      {"compound": "COc1ccc(/C=C/C(=O)c2ccc(NS(=O)(=O)c3ccc(C)cc3)cc2)cc1O", "Potency": "inconclusive: 79.4 µM [inhibitor, partial curve]"},
      {"compound": "Cc1cccc(C(=O)OCC(=O)c2c(C)[nH]c3ccccc23)c1O", "Potency": "inconclusive: 79.4 µM [inhibitor, single point]"},
      {"compound": "Cc1cn(-c2cc(NC(=O)c3ccc(C)c(NC(=O)c4cccc(-c5cn[nH]c(=O)c5)c4)c3)cc(C(F)(F)F)c2)cn1", "Potency": "inconclusive: 20 µM [inhibitor, full curve]"},
      {"compound": "Cc1ccc(C)c(N/N=C2\\CCCNC2=O)c1", "Potency": "inconclusive: 112 µM [inhibitor, single point]"},
      {"compound": "CCOC(=O)N1CCN(C(=O)Cn2c(C)cc3ccccc3c2=O)CC1", "Potency": "inconclusive: 12.6 µM [inhibitor, full curve, poor fit]"},
      {"compound": "O=C(c1ccccc1)n1nc(-c2ccco2)nc1NCc1ccccc1Cl", "activity, negative = inhibition": "inactive: -6.48%"},
      {"compound": "CC(C)=CCc1c2c(c3occ(-c4ccc(O)c(O)c4)c(=O)c3c1O)C=CC(C)(C)O2", "Potency": "inconclusive: 89.1 µM [inhibitor, single point]"},
      {"compound": "COc1ccc(N(C(=O)COc2ccccc2OC)S(=O)(=O)c2ccc(Cl)cc2)cc1", "activity, negative = inhibition": "inactive: -0.102%"},
      {"compound": "CCc1cccc(CC)c1-n1c(SCC(=O)N2CCCc3ccccc32)nc(O)cc1=O", "Potency": "inconclusive: 14.1 µM [inhibitor, full curve, poor fit]"},
      {"compound": "CC1(C)O[C@@H]2C[C@H]3[C@@H]4C[C@H](F)C5=CC(=O)C=C[C@]5(C)[C@@]4(F)[C@@H](O)C[C@]3(C)[C@]2(C(=O)CO)O1", "Potency": "inconclusive: 100 µM [inhibitor, single point]"},
      {"compound": "O=C(O)CCc1ccc(S(=O)(=O)Nc2ccc(OCc3ccccc3)cc2)cc1", "Potency": "inconclusive: 17.8 µM [inhibitor, partial curve]"},
      {"compound": "COc1ccc(Cl)cc1NC(=O)CSc1nc2ccsc2c(=O)n1CC1CCC(C(=O)O)CC1", "note": "(stereo not given)", "Potency": "inconclusive: 39.8 µM [inhibitor, partial curve, poor fit]"},
      {"compound": "COc1ccccc1C1/C(=C(\\O)c2ccc3c(c2)OCCO3)C(=O)C(=O)N1Cc1cccnc1", "note": "(stereo not given)", "Potency": "inconclusive: 1.12 µM [inhibitor, partial curve, poor fit]"},
      {"compound": "COc1cccc(-n2cc(C(=O)Nc3cc(C)c(Cl)cc3OC)c3ccccc3c2=O)c1", "activity, negative = inhibition": "inactive: 16.5%"},
      {"compound": "COc1cc2nc(NC(=O)c3ccco3)sc(=O)c2cc1OC", "Potency": "inconclusive: 39.8 µM [inhibitor, single point]"},
      {"compound": "CCOC(=O)c1cc(-c2ccccc2)nn1Cc1cc(CC)no1", "activity, negative = inhibition": "inactive: -3.47%"},
      {"compound": "O=C(Nc1cccc(C(F)(F)F)c1)Nc1nnc(N2CCCCC2)s1", "activity, negative = inhibition": "inactive: 14.6%"},
      {"compound": "Clc1ccc(CNc2cc(-c3ccccc3)nc3nncn23)cc1", "Potency": "inconclusive: 89.1 µM [inhibitor, single point]"},
      {"compound": "CC(C)(C)C(=O)N1CCC[C@H]1C(O)(c1ccccc1)c1ccccc1", "Potency": "inconclusive: 2.82 µM [inhibitor, partial curve, poor fit]"},
      {"compound": "O=c1[nH]c(=O)n(Cc2ccccc2)c2nc(-c3ccco3)cc(C(F)(F)F)c12", "Potency": "inconclusive: 89.1 µM [inhibitor, partial curve, poor fit]"},
      {"compound": "O=C(O)C1Nc2c(C(F)(F)F)ccc(Cl)c2C2C=CCC12", "note": "(stereo not given)", "Potency": "inconclusive: 22.4 µM [inhibitor, partial curve]"},
      {"compound": "Cc1cc(C)nc(NS(=O)(=O)c2ccc(N)cc2)n1", "Potency": "inconclusive: 89.1 µM [inhibitor, single point]"},
      {"compound": "COc1ccc(-c2ccc(NC(=O)c3ccc(Br)o3)cc2)nn1", "Potency": "inconclusive: 35.5 µM [inhibitor, single point]"},
      {"compound": "O=C(NNC(=O)c1cccc2ccccc12)c1ccccc1O", "Potency": "inconclusive: 25.1 µM [inhibitor, partial curve, poor fit]"}
    ]}
  ]
}
